Results from publication doi:10.1101/2021.05.18.444567.
Results are given in words; binding and its absence hold for the method and conditions named. Binding seen in cells or lysates may run through a third protein. Binding calls can cover weak binding; strength is not graded here.

Target: FLAG-METTL5 (human)
Test: co-IP

B1: TRMT112 (protein, UniProt Q9UI30 1-125)
chain: MKLLTHNLLSSHVRGVGSRGFPLRLQATEVRICPVEFNPNFVARMIPKVEWSAFLEAADNLRLIQVPKGPVEGYEENEEFLRTMHHLLLEVEVIEGTLQCPESGRMFPISRGIPNMLLSEEETES
  binding: binds
